The results in this text go back to PMC3746198.

The chains behind the UniProt entries cited, without tags or fusion partners.
UniProt Q3URK3: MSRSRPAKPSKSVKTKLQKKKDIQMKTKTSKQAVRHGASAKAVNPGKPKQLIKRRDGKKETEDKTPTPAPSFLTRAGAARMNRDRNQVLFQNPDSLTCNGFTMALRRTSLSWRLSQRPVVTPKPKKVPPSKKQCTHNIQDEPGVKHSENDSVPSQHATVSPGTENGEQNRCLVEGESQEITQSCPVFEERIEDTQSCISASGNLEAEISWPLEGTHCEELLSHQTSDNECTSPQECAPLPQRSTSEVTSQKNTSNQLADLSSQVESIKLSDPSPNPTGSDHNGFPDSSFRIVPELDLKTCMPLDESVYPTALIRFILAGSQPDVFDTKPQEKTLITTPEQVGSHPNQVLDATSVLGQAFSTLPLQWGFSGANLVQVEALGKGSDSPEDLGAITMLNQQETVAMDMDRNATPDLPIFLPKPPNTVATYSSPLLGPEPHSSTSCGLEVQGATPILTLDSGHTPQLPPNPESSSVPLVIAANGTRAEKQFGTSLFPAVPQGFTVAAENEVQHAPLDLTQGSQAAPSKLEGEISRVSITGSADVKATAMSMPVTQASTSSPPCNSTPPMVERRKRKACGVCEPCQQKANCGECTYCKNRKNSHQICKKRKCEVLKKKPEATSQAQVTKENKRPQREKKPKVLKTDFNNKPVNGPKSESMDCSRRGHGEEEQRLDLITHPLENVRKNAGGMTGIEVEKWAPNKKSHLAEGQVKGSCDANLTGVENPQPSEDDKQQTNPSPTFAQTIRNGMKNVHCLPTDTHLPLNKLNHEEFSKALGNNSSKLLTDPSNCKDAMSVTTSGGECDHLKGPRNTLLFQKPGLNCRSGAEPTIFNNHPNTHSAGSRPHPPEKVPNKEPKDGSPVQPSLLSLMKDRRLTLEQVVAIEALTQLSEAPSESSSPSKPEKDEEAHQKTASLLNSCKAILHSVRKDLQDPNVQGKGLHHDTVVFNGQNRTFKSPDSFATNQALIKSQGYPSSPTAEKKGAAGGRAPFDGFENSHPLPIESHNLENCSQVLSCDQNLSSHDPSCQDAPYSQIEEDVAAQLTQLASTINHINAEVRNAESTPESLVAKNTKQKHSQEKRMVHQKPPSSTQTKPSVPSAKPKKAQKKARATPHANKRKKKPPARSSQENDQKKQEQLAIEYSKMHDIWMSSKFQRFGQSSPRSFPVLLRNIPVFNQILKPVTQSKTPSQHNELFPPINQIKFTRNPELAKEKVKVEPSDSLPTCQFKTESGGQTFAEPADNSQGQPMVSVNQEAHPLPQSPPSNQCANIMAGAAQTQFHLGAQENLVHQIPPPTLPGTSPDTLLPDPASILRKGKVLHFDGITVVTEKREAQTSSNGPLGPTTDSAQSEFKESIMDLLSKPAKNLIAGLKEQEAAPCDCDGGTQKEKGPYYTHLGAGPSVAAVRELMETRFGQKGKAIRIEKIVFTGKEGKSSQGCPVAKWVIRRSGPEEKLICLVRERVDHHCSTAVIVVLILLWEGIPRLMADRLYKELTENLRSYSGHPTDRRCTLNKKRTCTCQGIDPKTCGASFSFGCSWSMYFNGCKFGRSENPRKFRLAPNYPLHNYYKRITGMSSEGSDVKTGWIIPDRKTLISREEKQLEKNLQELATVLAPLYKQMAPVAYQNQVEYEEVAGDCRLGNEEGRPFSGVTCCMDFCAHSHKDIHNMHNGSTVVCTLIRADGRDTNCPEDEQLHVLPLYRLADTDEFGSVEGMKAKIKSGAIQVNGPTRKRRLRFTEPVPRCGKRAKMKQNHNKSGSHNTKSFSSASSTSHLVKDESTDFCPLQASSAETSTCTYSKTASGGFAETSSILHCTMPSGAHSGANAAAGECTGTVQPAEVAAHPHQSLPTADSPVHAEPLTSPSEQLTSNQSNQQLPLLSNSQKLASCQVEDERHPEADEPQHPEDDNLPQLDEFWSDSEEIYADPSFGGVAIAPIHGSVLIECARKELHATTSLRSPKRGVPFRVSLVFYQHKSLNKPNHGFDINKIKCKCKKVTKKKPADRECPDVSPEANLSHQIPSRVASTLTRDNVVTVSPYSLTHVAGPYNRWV
UniProt Q7M6Y2: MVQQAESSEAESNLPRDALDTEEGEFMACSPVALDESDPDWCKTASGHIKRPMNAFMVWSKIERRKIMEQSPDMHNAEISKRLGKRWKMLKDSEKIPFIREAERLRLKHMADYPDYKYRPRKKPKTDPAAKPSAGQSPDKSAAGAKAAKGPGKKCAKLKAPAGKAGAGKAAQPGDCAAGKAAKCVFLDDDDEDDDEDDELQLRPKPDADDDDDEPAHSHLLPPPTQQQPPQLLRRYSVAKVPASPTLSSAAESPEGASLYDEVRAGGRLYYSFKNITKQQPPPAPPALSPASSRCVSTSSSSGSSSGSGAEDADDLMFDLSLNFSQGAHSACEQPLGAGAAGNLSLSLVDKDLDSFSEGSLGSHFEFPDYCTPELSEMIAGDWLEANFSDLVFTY
UniProt Q06831: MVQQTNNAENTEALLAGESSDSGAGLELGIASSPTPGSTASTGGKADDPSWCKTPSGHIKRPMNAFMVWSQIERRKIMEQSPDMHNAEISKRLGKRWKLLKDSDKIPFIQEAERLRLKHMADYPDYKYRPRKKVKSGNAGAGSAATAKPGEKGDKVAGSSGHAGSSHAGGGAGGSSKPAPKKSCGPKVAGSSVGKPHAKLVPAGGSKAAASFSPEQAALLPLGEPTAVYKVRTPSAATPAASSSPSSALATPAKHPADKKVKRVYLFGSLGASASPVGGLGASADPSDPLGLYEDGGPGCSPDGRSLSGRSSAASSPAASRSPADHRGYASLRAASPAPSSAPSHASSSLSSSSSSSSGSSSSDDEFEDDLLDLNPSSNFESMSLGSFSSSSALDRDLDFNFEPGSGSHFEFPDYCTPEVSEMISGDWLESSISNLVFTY
UniProt P48432: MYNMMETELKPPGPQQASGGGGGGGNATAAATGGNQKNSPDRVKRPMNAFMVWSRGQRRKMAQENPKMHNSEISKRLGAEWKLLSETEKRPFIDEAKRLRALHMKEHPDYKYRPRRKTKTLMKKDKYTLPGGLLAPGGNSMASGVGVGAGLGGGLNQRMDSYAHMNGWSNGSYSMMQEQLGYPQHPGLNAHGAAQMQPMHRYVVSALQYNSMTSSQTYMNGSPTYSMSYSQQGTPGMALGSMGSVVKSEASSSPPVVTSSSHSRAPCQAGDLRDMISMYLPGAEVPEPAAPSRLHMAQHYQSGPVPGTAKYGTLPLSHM
UniProt Q80U58: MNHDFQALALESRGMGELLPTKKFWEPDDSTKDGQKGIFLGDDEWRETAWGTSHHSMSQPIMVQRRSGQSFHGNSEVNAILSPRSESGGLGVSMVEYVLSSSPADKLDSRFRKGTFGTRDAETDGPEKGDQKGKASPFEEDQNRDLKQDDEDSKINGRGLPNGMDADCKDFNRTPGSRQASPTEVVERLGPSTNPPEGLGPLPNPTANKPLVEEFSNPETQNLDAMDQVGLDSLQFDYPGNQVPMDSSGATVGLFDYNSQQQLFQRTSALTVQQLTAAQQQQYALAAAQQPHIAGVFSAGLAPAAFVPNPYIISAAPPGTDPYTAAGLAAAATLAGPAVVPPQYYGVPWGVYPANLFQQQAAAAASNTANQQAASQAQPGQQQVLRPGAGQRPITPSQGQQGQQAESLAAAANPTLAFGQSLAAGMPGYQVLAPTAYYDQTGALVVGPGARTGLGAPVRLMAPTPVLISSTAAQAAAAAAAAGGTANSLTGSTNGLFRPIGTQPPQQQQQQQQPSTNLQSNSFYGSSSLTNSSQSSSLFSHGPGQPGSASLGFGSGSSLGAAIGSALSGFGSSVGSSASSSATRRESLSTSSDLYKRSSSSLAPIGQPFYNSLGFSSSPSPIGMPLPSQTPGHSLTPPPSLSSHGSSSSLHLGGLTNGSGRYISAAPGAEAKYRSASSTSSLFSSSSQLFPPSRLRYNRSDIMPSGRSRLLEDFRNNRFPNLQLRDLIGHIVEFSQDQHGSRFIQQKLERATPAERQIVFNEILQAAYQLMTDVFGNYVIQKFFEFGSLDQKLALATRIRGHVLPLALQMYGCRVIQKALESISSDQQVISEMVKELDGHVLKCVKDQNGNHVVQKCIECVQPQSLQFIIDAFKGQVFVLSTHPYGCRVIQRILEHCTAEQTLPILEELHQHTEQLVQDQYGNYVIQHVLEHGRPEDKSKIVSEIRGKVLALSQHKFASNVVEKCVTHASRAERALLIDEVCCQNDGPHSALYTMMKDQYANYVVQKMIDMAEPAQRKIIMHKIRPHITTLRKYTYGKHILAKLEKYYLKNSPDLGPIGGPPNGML
UniProt Q80U78: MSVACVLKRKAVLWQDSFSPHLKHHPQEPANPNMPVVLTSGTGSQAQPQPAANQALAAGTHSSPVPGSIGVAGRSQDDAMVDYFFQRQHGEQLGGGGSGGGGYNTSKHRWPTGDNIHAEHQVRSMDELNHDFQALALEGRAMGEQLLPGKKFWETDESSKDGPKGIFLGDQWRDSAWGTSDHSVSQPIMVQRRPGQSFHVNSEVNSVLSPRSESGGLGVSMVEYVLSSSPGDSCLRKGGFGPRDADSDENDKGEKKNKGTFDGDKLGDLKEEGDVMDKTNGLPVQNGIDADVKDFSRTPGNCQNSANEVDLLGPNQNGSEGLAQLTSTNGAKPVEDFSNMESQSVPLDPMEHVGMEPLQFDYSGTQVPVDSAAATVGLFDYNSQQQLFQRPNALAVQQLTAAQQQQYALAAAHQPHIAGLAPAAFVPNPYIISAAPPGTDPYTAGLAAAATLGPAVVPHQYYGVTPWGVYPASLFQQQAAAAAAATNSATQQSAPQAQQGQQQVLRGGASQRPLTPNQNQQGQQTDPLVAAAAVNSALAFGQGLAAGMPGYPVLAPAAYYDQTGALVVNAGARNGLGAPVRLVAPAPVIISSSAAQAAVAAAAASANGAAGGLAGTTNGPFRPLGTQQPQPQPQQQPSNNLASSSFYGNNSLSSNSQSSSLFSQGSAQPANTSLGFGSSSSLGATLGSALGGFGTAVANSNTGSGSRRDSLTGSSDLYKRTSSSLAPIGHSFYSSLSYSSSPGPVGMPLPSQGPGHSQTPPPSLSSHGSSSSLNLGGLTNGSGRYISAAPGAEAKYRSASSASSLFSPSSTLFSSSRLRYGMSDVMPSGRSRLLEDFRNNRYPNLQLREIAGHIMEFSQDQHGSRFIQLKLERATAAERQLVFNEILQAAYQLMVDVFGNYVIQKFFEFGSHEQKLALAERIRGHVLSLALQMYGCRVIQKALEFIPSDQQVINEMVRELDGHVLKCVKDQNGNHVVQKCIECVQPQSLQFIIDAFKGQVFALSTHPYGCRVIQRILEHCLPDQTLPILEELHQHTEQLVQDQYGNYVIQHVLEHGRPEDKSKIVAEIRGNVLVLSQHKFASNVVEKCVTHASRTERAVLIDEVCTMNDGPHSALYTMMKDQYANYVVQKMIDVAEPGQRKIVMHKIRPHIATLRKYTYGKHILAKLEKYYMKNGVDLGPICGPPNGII
UniProt P43267: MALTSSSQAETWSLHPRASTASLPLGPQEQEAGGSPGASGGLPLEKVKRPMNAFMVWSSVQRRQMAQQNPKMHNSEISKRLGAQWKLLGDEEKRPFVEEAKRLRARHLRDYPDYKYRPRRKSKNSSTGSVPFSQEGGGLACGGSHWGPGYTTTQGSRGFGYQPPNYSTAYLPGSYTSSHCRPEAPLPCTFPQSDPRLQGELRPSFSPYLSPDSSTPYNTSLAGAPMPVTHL

Results are given in words; binding and its absence hold for the method and conditions named. Binding seen in cells or lysates may run through a third protein. A yes stands for co-enrichment or nearness to the bait. Other partners may have been found. For part of these data: No binding means not detected with the bait. Tags and fused reporters may be left off the sequences shown.

The chains are these.
T1: (FLAG)3Nanog (UniProt Q80Z64)
T1 sequence: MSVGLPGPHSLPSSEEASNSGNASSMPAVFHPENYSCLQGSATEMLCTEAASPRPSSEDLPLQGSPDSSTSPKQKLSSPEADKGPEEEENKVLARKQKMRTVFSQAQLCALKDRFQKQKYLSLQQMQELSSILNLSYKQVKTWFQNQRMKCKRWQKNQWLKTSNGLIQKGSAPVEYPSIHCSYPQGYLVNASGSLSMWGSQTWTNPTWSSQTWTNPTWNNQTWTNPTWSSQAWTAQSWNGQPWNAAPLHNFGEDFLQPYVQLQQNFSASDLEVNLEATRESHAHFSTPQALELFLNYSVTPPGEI

B1: Zfp326 (protein, UniProt O88291 1-580)
chain: MDFEDDYVHSTCRGAYQDFNGMDRDYGPGSYGGLDRDYGHGSYGGQRSMDSYLNQSYGMDNHSGGGGGSRFGPYESYDSRSSLGGRDLYRSGYGFNEPEQTRFGGSYGGRFESSYRNSLDSFGGRNQGGSSWEAPYSRSKLRPGFMEDRGRENYSSYSSFSSPHMKPAPVGSRGRGTPAYPESTFGSRSYDAFGGPSTGRGRGRGHMGDFGSFHRPGIIVDYQNKPANVTIATARGIKRKMMQIFIKPGGAFIKKPKLAKPMDKMNLSKSPTKTDPKNEEEEKRRIEARREKQRRRREKNSEKYGDGYRMAFTCSFCKFRTFEEKDIELHLESSSHQETLDHIQKQTKFDKVVMEFLHECMVNKFKKASIRKQQTLNHPEAYKIIEKDIMEGVTADDHMMKVETVHCSACSVYIPALHSSVQLHLKSPDHSKGKQAYKEQIKRESVLTATSILNNPIVKARYERFVKGENPFEIQDHPQDQQIEGDEEDEEKIDEPIEEEEEEEEEEEEEGEEAGSVEEEGDVEGEEGTAEAAAAGEADAVGEAEGAGEAEEAEEEEEEEGTQEFAAQACATEQCEHRQM
B2: Zfp609 (protein, UniProt Q8BZ47 1-1413)
chain: MSLSSGACGGKGVDANPVETYDSGDEWDIGVGNLIIDLDADLEKDQQKLEMSGSKEVGIPAPNAVATLPDNIKFVTPVPGPQGKEGKSKSKRSKSGKDASKPTPGTSLFSPSEGAASKKEVQGRAGDGASAGGLVAAVAPKGSEKAAKASRSVAGSKKEKENSSSKGKKERSEGVGTCSEKDPGVLQPVPLGGRGSQYDGSAGMDTGTVEPLGSIAIEPGAALNPLGTKPEPEEGENECRPLKKVKSEKMESPVSTPAVLPLHLLVPVVNNDISSPCEQIMVRTRSVGVNTCDVALATEPECLGPCEPGTSVNLEGIVWQETEDGMLVVNVTWRNKTYVGTLLDCTRHDWAPPRFCDSPTSDLEMRNGRGRGKRMRPSSNTPVSEAAAASDSKGTSSSSKTRAGANSKGRRGSQNSSEHRPPASSTSEDVKASPSSANKRKSKPLSDMELNSSSEDSKGSKRVRTNSMGSATGPLPGTKVEPTLVDRNCPSPVLIDCPHPNCNKKYKHINGLKYHQAHAHTDDDSKPEADGDSEYGEEPALHADLSCNGAPVPQKGSLSPARSATPKVRLVEPHSPSPSSKFSTKGLCKKKLSGEGDTDPGALSNDGSDDGPSVMDETSNDAFDSLERKCMEKEKCKKPSSLKSEKIPSKSLKSARPIAPAIPPQQIYTFQTATFTAASPGSSSGLTTTVVQAMPNSPQLKPIQPKPTVMGEPFTVNPALTPAKDKKKKDKKKKDSSKELESPLTPGKVCRAEEGKSPFRDAAGDGIKVESLLNGSSESHQSRLASIKAEADKIYSFTDNAPSPSIGGSSRLDSTTPTQPLTPLHVVTQNGAEASSVKTNSPAYSDISDAGEDGEGKVDSAKSKDPEQLVKEGAKKTLFPPQPQSKDSPYYQGFESYYSPGYAQSSPGTLTSSSQAGMEGQPLKTKKDEEPESVEGKVKNDVCEEKKPELSNSSQQPSVIQQRPNMYMQSLYYNQYAYVPPYGYSDQSYHSHLLSTNTAYRQQYEEQQKRQSLEQQQQQQRGLDKKTEMGLKEREASLKEEWKQKPSIPPTLTKAPSLTDLVKSGPGKAKEPGTDPAKSVIIPKLDDSSKLPSQPPEGLKGKLGEASHLGKEASEAKTGTECGRQAEVDPILWYRQETESRMWTYVYPAKYSDIKSEDDRWKEERDRKLKEDRSRSKDSVPKEDGKESTSSDCKLPPSEESRLGSKEPRPSVHVPVSSPLTQHQSYIPYMHGYSYSQSYDPNHPSYRGMPAVMMQNYPGSYLPSSYSFSPYGSKVSGGEDADKARASPSVSCKASSESKALDILQQHASHYKSKSPTISDKNSQERDRGGCGVVGGGGSCGSVAGAGGTDRSADRPRTSPSQRLMSTHHHHHHLGYSLLPAQYNLPYAAGLSSTAIVASQQGSTPSLYPPPRR
B3: Rbm9 (protein, UniProt Q8BP71 1-449)
chain: MAEGGQAQQQPPQLGPGAAARGMKRESEVELPVPGAGADGPEPGLSKRPRTEEAADGGMQNEPLTPGYHGFPARDGQGNQEPTTTPDAMVQPFTTIPFPPPPQNGIPTEYGVPHTQDYAGQTSEHNLTLYGSTQPHGEQSSNSPSNQNGSLTQTEGGAQTDGQQSQTQSSENSESKSTPKRLHVSNIPFRFRDPDLRQMFGQFGKILDVEIIFNERGSKGFGFVTFENSADADRAREKLHGTVVEGRKIEVNNATARVMTNKKMVTPYANGWKLSPVVGAVYGPELYAASSFQADVSLGNEAAVPLSGRGGINTYIPLISLPLVPGFPYPTAATTAAAFRGAHLRGRGRTVYGAVRAVPPTAIPAYPGVVYQDGFYGADLYGGYAAYRYAQPATATAATAAAAAAAAYSDGYGRVYTADPYHALAPAASYGVGAVASLYRGGYSRFAPY
B4: Ilf3 (protein, UniProt Q9Z1X4 1-898)
chain: MRPMRIFVNDDRHVMAKHSSVYPTQEELEAVQNMVSHTERALKAVSDWIDEQEKGNSELSEAENMDTPPDDESKEGAGEQKAEHMTRTLRGVMRVGLVAKGLLLKGDLDLELVLLCKEKPTTALLDKVADNLAIQLTTVTEDKYEILQSVDDAAIVIKNTKEPPLSLTIHLTSPVVREEMEKVLAGETLSVNDPPDVLDRQKCLAALASLRHAKWFQARANGLKSCVIVIRVLRDLCTRVPTWGPLRGWPLELLCEKSIGTANRPMGAGEALRRVLECLASGIVMPDGSGIYDPCEKEATDAIGHLDRQQREDITQSAQHALRLAAFGQLHKVLGMDPLPSKMPKKPKNENPVDYTVQIPPSTTYAITPMKRPMEEDGEEKSPSKKKKKIQKKEEKADPPQAMNALMRLNQLKPGLQYKLISQTGPVHAPIFTMSVEVDGSNFEASGPSKKTAKLHVAVKVLQDMGLPTGAEGRDSSKGEDSAEESDGKPAIVAPPPVVEAVSNPSSVFPSDATTEQGPILTKHGKNPVMELNEKRRGLKYELISETGGSHDKRFVMEVEVDGQKFQGAGSNKKVAKAYAALAALEKLFPDTPLALEANKKKRTPVPVRGGPKFAAKPHNPGFGMGGPMHNEVPPPPNIRGRGRGGNIRGRGRGRGFGGANHGGGYMNAGAGYGSYGYSSNSATAGYSQFYSNGGHSGNAGGGGSGGGGGSSSYSSYYQGDSYNSPVPPKHAGKKPLHGGQQKASYSSGYQSHQGQQQPYNQSQYSSYGTPQGKQKGYGHGQGSYSSYSNSYNSPGGGGGSDYSYDSKFNYSGSGGRSGGNSYGSSGSSSYNTGSHGGYGTGSGGSSSYQGKQGGYSSQSNYSSPGSSQSYSGPASSYQSSQGGYSRNTEHSMNYQYR
B5: Arid5b (protein, UniProt Q8BM75 1-1188)
chain: MEPNSLQWVGSPCGLHGPYIFYKAFQFHLEGKPRILSLGDFFFVRCTPKDPICIAELQLLWEERTSRQLLSSSKLYFLPEDTPQGRNSDHGEDEVIAVSEKVIVKLEDLVKWAHSDFSKWRCGLRATPVKTEAFGRNGQKEALLRYRQSTLNSGLNFKDVLKEKADLGEDEEETNVIVLSYPQYCRYRSMLKRIQDKPSSILTDQFALALGGIAVVSRNPQILYCRDTFDHPTLIENESVCDEFAPNLKGRPRKKKTCPQRRDSFSGSKDPNNNCDGKVISKVKGEARSALTKPKNNHNNCKKTSNEEKPKLSIGEECRADEQAFLVALYKYMKERKTPIERIPYLGFKQINLWTMFQAAQKLGGYETITARRQWKHIYDELGGNPGSTSAATCTRRHYERLILPYERFIKGEEDKPLPPIKPRKQENNTQENENKTKVSGNKRIKQEMAKNKKEKENTPKPQDTSEVSSEQRKEEETLNHKSAPEPLPAPEVKGKPEGHKDLGARAPVSRADPEKANETDQGSNSEKEAEEMGDKGLAPLLPSPPLPPEKDSAPTPGAGKQPLASPSTQMDSKQEAKPCCFTESPEKDLQGAPFSSFSATKPPLTSQNEAEEEQLPATANYIANCTVKVDQLGSDDIHTALKQTPKVLVVQSFDMFKDKDLTGPMNENHGLNYTPLLYSRGNPGIMSPLAKKKLLSQVSGASLSSSYPYGSPPPLISKKKLIAREDLCSGLSQGHHSQSSDHTAVSRPSVIQHVQSFKNKASEDRKSINDIFKHDKLSRSDAHRCGFSKHQLGSLADSYILKQETQEGKDKLLEKRAVSHAHVPSFLADFYSSPHLHSLYRHTEHHLHNEQSSKYAARDAYQESENGAFLSHKHPEKIHVNYLASLHLQDKKVAAAEASTDDQPTDLSLPKNPHKLTSKVLGLAHSTSGSQEIKGASQFQVVSNQSRDCHPKACRVSPMTMSGPKKYPESLARSGKPHQVRLENFRKMEGMVHPILHRKMSPQNIGAARPIKRSLEDLDLVIAGKKARAVSPLDPAKEASGKEKASEQESEGNKGAYGGHSGAASEGHKLPLSTPIFPGLYSGSLCNSGLNSRLPAGYSHSLQYLKNQTVLSPLMQPLAFHSLVMQRGIFTSPTNSQQLYRHLAAATPVGSSYGDLLHNSIYPLAGINPQAAFPSSQLSSVHPSTKL

The target of one test is T1, (FLAG)3Nanog. The test is described as follows: affinity purification with mass spectrometry; FLAG-agarose purification of (FLAG)3Nanog from nuclear extract of E14Tg2a F-Nanog and RCNβH-B(t):F-Nanog ES cells, 150 U/ml Benzonase (4°C, 3 h), eluted with Flag peptide (0.2 mg/ml); parental cells as control; hits in two of three purifications.
Regarding TET-1 (from UniProt Q3URK3 1-2039), the binding entry is “binds”. As for Sox11 (from UniProt Q7M6Y2 1-395), the binding entry is listed as “no binding”. Regarding Sox4 (from UniProt Q06831 1-440), the binding result was “no binding”. As to “Sox2 (endogenous) (from UniProt P48432 1-319)”, the binding result was “binds”. On the same count and under the same terms, in the case of Pum2 (from UniProt Q80U58 1-1066) it was “binds”.

Pum1 (from UniProt Q80U78 1-1189): the binding entry is reported as “binds”. On to Sox15 (from UniProt P43267 1-231), for which the binding entry was “no binding”.

The target in another test is T1, (FLAG)3Nanog. The description is as above. The source holds these as a separate data set.
For the molecule B1, the binding entry was “binds”. On the same count and under the same terms, the entry for B2 is “binds”; for B3 it is “binds”. On the same count and under the same terms, in the case of B4 it was “binds”; in that of B5, “binds”.
